Results are given in words; binding and its absence hold for the method and conditions named. In cells and extracts the contact can be indirect. Some results given as binding are weak or reduced against the parent protein; the word gives no strength.
Molecular target: INTS13 (human (endogenous in lymphoblastoid cells)) (UniProt Q9NVM9)
Assay: co-IP; anti-INTS13 antibodies pre-coupled to protein A-Sepharose CL-4B beads; whole-cell extracts (HNTG buffer) of control C702 and patients' AC438/AC439 lymphoblastoid cells, 2 h at 4°C; washes with IP150 buffer (20 mM Tris-HCl pH 7.4, 150 mM NaCl, 5 mM MgCl2, 0.1% Nonidet P-40); western blot

By UniProt entry, the sequences of proteins in these tests, tags left out.
UniProt Q9NVM9: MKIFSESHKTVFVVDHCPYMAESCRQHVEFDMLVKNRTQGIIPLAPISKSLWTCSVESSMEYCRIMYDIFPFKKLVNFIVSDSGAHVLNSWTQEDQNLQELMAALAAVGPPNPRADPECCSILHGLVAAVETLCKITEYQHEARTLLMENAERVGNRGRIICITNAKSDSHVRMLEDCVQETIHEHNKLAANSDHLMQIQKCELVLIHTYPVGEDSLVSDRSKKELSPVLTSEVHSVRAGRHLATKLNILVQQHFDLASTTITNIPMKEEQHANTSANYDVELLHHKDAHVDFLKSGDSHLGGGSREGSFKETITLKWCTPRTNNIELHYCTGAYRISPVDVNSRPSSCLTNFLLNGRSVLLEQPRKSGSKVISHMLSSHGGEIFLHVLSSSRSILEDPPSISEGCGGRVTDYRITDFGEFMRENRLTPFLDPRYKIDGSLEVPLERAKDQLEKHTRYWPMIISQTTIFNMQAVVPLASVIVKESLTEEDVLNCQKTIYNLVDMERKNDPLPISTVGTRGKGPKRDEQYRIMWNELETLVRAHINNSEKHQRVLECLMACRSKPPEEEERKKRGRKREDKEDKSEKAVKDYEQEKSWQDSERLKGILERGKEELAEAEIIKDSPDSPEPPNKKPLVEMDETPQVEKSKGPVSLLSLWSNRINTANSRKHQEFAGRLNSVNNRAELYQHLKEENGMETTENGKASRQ
UniProt Q9NVR2: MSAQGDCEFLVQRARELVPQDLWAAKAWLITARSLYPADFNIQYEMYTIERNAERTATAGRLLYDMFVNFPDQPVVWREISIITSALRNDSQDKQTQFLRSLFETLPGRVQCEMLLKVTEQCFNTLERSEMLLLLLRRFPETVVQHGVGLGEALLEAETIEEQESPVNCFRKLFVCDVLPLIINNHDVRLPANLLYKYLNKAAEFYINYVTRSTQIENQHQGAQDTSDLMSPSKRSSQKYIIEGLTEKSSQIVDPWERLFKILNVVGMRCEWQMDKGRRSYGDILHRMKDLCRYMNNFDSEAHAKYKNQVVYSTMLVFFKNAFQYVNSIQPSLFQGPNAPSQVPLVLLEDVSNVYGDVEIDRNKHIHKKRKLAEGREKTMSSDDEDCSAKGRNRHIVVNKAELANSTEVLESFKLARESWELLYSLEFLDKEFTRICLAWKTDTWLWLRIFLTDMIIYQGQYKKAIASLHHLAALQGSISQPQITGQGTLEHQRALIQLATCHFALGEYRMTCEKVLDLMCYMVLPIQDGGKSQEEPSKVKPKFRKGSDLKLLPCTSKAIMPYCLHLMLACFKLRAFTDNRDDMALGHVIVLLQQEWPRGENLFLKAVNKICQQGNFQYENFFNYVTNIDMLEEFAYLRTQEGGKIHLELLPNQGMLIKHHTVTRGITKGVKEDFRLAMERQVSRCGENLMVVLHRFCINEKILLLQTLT
UniProt Q96SY0: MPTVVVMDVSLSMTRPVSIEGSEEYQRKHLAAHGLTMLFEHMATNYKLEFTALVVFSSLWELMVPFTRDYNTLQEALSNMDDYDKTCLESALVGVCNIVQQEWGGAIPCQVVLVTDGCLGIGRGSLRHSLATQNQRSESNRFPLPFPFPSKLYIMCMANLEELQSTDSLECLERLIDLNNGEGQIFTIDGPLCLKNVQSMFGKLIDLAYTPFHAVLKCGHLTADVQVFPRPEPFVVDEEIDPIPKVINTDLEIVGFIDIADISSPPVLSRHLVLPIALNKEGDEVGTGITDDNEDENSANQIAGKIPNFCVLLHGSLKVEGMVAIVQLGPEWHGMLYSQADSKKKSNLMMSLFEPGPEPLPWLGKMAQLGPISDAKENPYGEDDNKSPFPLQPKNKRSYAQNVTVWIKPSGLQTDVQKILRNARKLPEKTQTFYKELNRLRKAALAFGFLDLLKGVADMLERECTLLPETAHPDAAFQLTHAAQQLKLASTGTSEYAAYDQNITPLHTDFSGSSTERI

binding | Substance
binds | INTS10 (from UniProt Q9NVR2 1-710)
binds | INTS14 (from UniProt Q96SY0 1-518)

Source: PMC9881141
